Where two headings read alike, the source gives them in different places. At least one compound was matched to its structure with a doubt left.
Tested on: 4T1 metastatic breast cancer cells
Experiment: Adhesion assay: 4T1 cell adhesion to a Matrigel-coated surface
Type: cell-based, mouse
Experimental: Adhesion Assay. Ninety six-well plates were coated with 12% (v/v) Matrigel (BD Biosciences) at 37° C. for 1 hour, washed twice with washing buffer (0.1% BSA-containing RPMI medium) followed by blocking with 0.5% BSA-containing RPMI medium at 37° C. for 60 minutes. 4T1 cells were treated with individual derivatives at the indicated concentrations at 37° C. in a CO2 incubator for 60 minutes, and 2×10^4 cells in 100 μl were seeded in each well. Cells were allowed to adhere to the Matrigel-coated surface for 30 min at 37° C., and nonadherent cells were removed by gentle washing with the aforementioned washing buffer. Adherent cells were fixed with 10% formalin, stained with 0.5% crystal violet, and dissolved in 2% SDS. Absorbance at 570 nm was measured in an ELISA plate reader (Molecular device, Sunnyvale, Calif.).

Measured: IC50

Cc1c(C)c2c(c(C)c1OC(=O)CCC(=O)O)CC[C@@](C)(CCC[C@H](C)CCC[C@H](C)CCCC(C)C)O2 [VES, α-tocopheryl succinate]
10 µM: 4T1 cells, Matrigel-coated surface, FIG. 2B, unit inferred, read-out: concentration inhibiting 50% cell adhesion | adhesion to Matrigel-coated surface, FIG. 2B, read-out: IC50, inhibiting 4T1 cell adhesion | summary statement b23, read-out: IC50, blocking the adhesion of 4T1 metastatic breast cancer cells
